# Hit rate of the full screen: of about 360,000 compounds, about 10,000 (2.8%) were called active. Inconclusive means that the source gave no clear call. Such entries were picked first, then a sample of the others. The call rests on the fitted dose curve; in most records, active means well fitted inhibition curve with a large enough effect; inconclusive means small, poorly fitted or top-dose-only effect; inactive means flat fitted curve, though single readings scatter. Potencies of inconclusive entries are doubtful fits and often do not repeat.
# Amino acid sequences for entries named in this document (tags omitted).
# UniProt P53350, whole entry, looked up: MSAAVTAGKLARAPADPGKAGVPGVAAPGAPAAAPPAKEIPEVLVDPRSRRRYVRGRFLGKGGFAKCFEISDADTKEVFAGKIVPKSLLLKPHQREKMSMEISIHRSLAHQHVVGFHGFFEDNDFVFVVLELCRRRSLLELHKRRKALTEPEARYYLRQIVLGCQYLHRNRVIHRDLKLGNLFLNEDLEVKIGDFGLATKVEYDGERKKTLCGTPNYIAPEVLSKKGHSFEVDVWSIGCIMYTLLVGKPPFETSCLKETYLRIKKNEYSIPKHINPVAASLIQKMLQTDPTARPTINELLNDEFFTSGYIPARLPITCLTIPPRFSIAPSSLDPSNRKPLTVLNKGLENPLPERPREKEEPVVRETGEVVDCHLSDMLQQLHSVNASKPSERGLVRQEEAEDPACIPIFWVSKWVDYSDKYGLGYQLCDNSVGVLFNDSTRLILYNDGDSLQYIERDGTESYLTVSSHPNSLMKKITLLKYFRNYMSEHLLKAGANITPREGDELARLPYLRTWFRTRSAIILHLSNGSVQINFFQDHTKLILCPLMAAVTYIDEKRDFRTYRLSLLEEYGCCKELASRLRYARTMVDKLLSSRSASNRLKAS
# Molecular target: Serine/threonine-protein kinase PLK1 (Homo sapiens) (UniProt P53350)
# Assay: qHTS for Inhibitors of PLK1-PDB (polo-like kinase 1 - polo-box domain): Primary Screen; further: nearly all actives have a fitted effect of over 65% in size; on max response, negative = inhibition: series mostly up to about 57 µM
# Details: Plk1 PBD binding of FITC phosphopeptide, fluorescence polarization
# On the % scale 0 is the no-effect control and ±100 the full control effect; potency means the concentration at half of the fitted maximal effect.
Structure (SMILES),"max response, negative = inhibition",Potency
C/C(=N\Nc1ccccc1)c1cc2ccccc2oc1=O,inactive: -11.4%,
Cc1cccc(N2CC(C(=O)Nc3nnc(SCC(=O)N4CCOCC4)s3)CC2=O)c1 (stereo unspecified),,"inconclusive: 26.7 µM [inhibitor, partial curve]"
COCCn1c(=S)[nH]c2sc3c(c2c1=O)CCCC3,inactive: -13.7%,
COCCNC(=O)CN(Cc1ccc2c(c1)OCO2)C(=O)CCC(=O)Nc1nccs1,,active: 3.36 µM
Cc1ccc(C2CC(c3ccco3)n3ncnc3N2)cc1 (stereo unspecified),inconclusive: -34.8% [inhibitor],
CC1(C)CC(C(=O)NCCC(c2ccccc2)c2ccco2)CCO1 (stereo unspecified),,"inconclusive: 29.9 µM [inhibitor, partial curve]"
C[n+]1ccccc1C1CCCC/C1=N\NC(N)=S (stereo unspecified),inconclusive: -34% [inhibitor],
C[C@@]12CC[C@@H](C3=C(CCC3)C1)N2c1ccccc1,inactive: -3.48%,
CSc1nc2sc3c(c2c(=S)[nH]1)CC(C)(C)OC3,,"inconclusive: 10.6 µM [inhibitor, partial curve, poor fit]"
COc1ccccc1NC(=O)Cn1c(O)c(N=NC(=O)c2ccccc2O)c2ccccc21,inactive: -18.7%,
Cc1cccc2c1c1ccc3c(c1n2C)C(=O)C=CC3=O,,"inconclusive: 11.9 µM [inhibitor, partial curve]"
CCOC(=O)N1CCC(NC(=O)c2sc3nc4n(c(=O)c3c2C)CCCC4)CC1,inactive: -1.25%,
CCN1C(=NCCCOC(C)C)N[C@@H](CCc2ccccc2)[C@H](C(=O)NCCCOC(C)C)[C@H]1C,,active: 23.8 µM
Cc1ccc(C2C=C(c3ccccc3)Nc3ncnn32)cc1 (stereo unspecified),,active: 29.9 µM
COc1ccc(C2NC(=O)c3sc(=S)n(-c4ccccc4)c3N2)cc1 (stereo unspecified),,"inconclusive: 26.7 µM [inhibitor, single point]"
O=C(Nc1nnc(-c2ccncc2)o1)c1ccccc1,,active: 7.52 µM
CCN(CC)CCN1C(=O)c2cccc3cc(N)cc(c23)C1=O,,"inconclusive: 18.9 µM [inhibitor, partial curve]"
O=C(CSc1nnc(Cn2cnc3ccccc32)o1)c1ccccc1,,"inconclusive: 29.9 µM [inhibitor, partial curve]"
O=C(CN1CCC(NC(=O)c2ccccc2F)CC1)Nc1ccc2c(c1)OCCO2,inactive: -9.67%,
CC(=O)OCCCNc1cc(Sc2ccc(C)cc2)c2nonc2c1[N+](=O)[O-],,"inconclusive: 4.23 µM [inhibitor, partial curve]"
CCOc1ccc(CN2CCN(C(=O)c3ccccc3)CC2)cc1,,"inconclusive: 26.7 µM [inhibitor, single point]"
O=C(Cn1cnc2c(oc3ccccc32)c1=O)NCC1CCCO1 (stereo unspecified),,"inconclusive: 18.9 µM [inhibitor, partial curve]"
CCOC(=O)c1sc(N)c(C(=O)Nc2ccccc2)c1C,,active: 9.47 µM
COc1ccc(C(=O)NC(=S)N(CCC(C)C)c2c(N)n(Cc3ccccc3)c(=O)[nH]c2=O)cc1,,"inconclusive: 26.7 µM [inhibitor, single point]"

# A second format for some results above:
Structure (SMILES) | max response, negative = inhibition | Potency
Cc1ccc(C2CC(c3ccco3)n3ncnc3N2)cc1 (stereo unspecified) | inconclusive: -34.8% [inhibitor] | 
Cc1ccc(C2C=C(c3ccccc3)Nc3ncnn32)cc1 (stereo unspecified) |  | active: 29.9 µM

# Some values from the list.
# Under Potency, CCOC(=O)c1sc(N)c(C(=O)Nc2ccccc2)c1C has active: 9.47 µM
# Under max response, negative = inhibition, Cc1ccc(C2CC(c3ccco3)n3ncnc3N2)cc1 (stereo unspecified) has inconclusive: -34.8% [inhibitor]
# Under Potency, COCCNC(=O)CN(Cc1ccc2c(c1)OCO2)C(=O)CCC(=O)Nc1nccs1 has active: 3.36 µM

# Later entries

Structure (SMILES),"max response, negative = inhibition",Potency
Cc1ccc2oc(-c3cccc(N)c3)nc2c1,,"inconclusive: 26.7 µM [inhibitor, partial curve]"
Cc1ccc(C(=O)N/C(=C/c2ccco2)C(=O)NC2CCS(=O)(=O)C2)cc1 (stereo unspecified),inactive: -4.35%,
O=C(CSc1nc(-c2ccccc2)nn1C(=O)c1ccccc1)Nc1cccc([N+](=O)[O-])c1,,"inconclusive: 2.12 µM [inhibitor, full curve]"
CCOC(=O)CCCCC(=O)c1[nH]c(=O)[nH]c1CSc1nnc2c3ccccc3n(C(C)C)c2n1,,"inconclusive: 18.9 µM [inhibitor, partial curve]"
O=C(NC(=S)Nc1ccc2nc[nH]c2c1)c1ccccc1,inactive: -16.4%,
O=C(NCc1cccs1)C1CC(c2ccc(Cl)cc2)=NO1 (stereo unspecified),,"inconclusive: 37.7 µM [inhibitor, partial curve]"
CS(=O)(=O)c1ccc(C(=O)NCCN2C(=O)S/C(=C\c3cccnc3)C2=O)cc1[N+](=O)[O-],,"inconclusive: 26.7 µM [inhibitor, partial curve]"
CCCCn1cnc2c(SCc3ccccc3Cl)nc(N)nc21,,"inconclusive: 26.7 µM [inhibitor, single point]"
O=C(COc1ccc(Cl)cc1)NCc1nnc(SCC(=O)Nc2ccc3c(c2)OCCO3)o1,,"inconclusive: 29.9 µM [inhibitor, partial curve]"
O=C(NCC(=O)N(c1cccc(F)c1)C(C(=O)NC1CCCC1)c1ccncc1)c1ccco1 (stereo unspecified),,"inconclusive: 26.7 µM [inhibitor, single point]"
O=C1NCCN1CCNS(=O)(=O)c1ccc(F)cc1,,"inconclusive: 29.9 µM [inhibitor, partial curve]"
O=C1Nc2ccccc2S/C1=C/NCc1ccccc1Cl,inactive: -16.7%,
O=C(CSc1nnc2n1CCCN2)c1ccc([N+](=O)[O-])cc1,inconclusive: -31.5% [inhibitor],
Cc1cc(Cl)ccc1N=c1ssnc1Cl,,active: 1.5 µM
CC(OC(=O)/C=C/c1ccc2ccccc2n1)C(=O)NCc1ccccc1 (stereo unspecified),inactive: 0.826%,
O=C(NCCN1CCCCC1)Nc1cccc(F)c1,inactive: -7.33%,
Cc1cc2cccc(C)c2nc1SCC(=O)NNC(=O)c1ccco1,,"inconclusive: 23.8 µM [inhibitor, partial curve]"
C#CCOCCOCCOCCNc1nc(N2CCN(C(=O)[C@H](CCCCN)n3cc(CCCC)nn3)CC2)nc(N2CCN(C(=O)[C@H](Cc3ccc(O)cc3)n3cc(CCO)nn3)CC2)n1,,"inconclusive: 29.9 µM [inhibitor, partial curve]"
Cc1cc(C)c(S(=O)(=O)c2ccccc2)c(OC(=O)c2c(F)cccc2F)n1,,"inconclusive: 21.2 µM [inhibitor, single point]"
CCn1c2ccccc2n2c(=O)c(=O)n(CC(=O)Nc3ccc(C(C)C)cc3)nc12,inactive: -4.86%,
CC(=O)Oc1ccc(N2C(=O)C3C(C2=O)C(C(=O)c2ccc(Cl)cc2)N2CCCC32)cc1 (stereo unspecified),,active: 23.8 µM
CCOC(=O)Cc1cnc(NC(=O)CSc2nc(N)cc(=O)[nH]2)s1,,active: 16.8 µM
COc1cc(NC(=O)CN2CCN(S(=O)(=O)c3ccc(C(C)C)cc3)CC2)cc(OC)c1,,"inconclusive: 29.9 µM [inhibitor, single point]"
Cc1nc(N)sc1-c1csc(Nc2cccc(O)c2)n1,,"inconclusive: 23.8 µM [inhibitor, partial curve]"

Structure (SMILES),"max response, negative = inhibition",Potency
Cc1ccc(OCC(=O)c2ccc(Cl)s2)c([N+](=O)[O-])n1,,"inconclusive: 23.8 µM [inhibitor, partial curve]"
COc1cc(Br)cc(/C=N/c2ncn[nH]2)c1O,,"inconclusive: 26.7 µM [inhibitor, partial curve]"
COC(=O)c1ccc(NC(=S)NC2CCCCC2)cc1,inactive: -7.11%,
O=C(CCN1C(=O)/C(=C/c2ccc(F)cc2)SC1=S)NCCc1cnc[nH]1,,"inconclusive: 29.9 µM [inhibitor, partial curve]"
Cc1nc([N+](=O)[O-])c(NCCO)n1Cc1ccccc1,,"inconclusive: 23.8 µM [inhibitor, single point]"
COc1ccc(CC(=O)Nc2ccc3c(c2)OC2(CCCC2)O3)c(OC)c1,inactive: 3.67%,
O=C1CCN(S(=O)(=O)c2ccc(Cl)cc2)CCN1,inconclusive: -34.7% [inhibitor],
CCOC(=O)c1cccc(NC(=O)Cn2cc3c(n2)CCC(C)C3)c1 (stereo unspecified),,"inconclusive: 29.9 µM [inhibitor, partial curve]"
O=C(CSc1nnc2c(n1)[nH]c1ccccc12)Nc1ccc(N2CCOCC2)cc1,,"inconclusive: 10.6 µM [inhibitor, partial curve]"
O=C(O)c1cc(/C=C/c2ccc(N3CCOCC3)c([N+](=O)[O-])c2)nc2ccccc12,inconclusive: -34.1% [inhibitor],
O=C1CCCC2=C1C(c1ccncc1)c1c(nc(SCc3ccccc3Cl)[nH]c1=O)N2 (stereo unspecified),,"inconclusive: 29.9 µM [inhibitor, single point]"
O=C(Nc1ccccc1O)c1cccc(NC(=O)c2ccco2)c1,,"inconclusive: 18.9 µM [inhibitor, partial curve]"
O=C(O)c1sc(C(=O)O)c(-c2ccccc2)c1-c1ccccc1,inactive: -2.09%,
O=C(Nc1ccc(N2CCCC2)cc1)c1cccc(-c2cc3ccccc3oc2=O)c1,,active: 2.67 µM
COc1cccc2cc(C(C)N(CCCN3CCOCC3)C(=S)Nc3ccc(C)c(C)c3)oc12 (stereo unspecified),inactive: 4.64%,
O=C(NCc1n[nH]c(=S)n1-c1ccc(Br)cc1)c1cccs1,,"inconclusive: 42.3 µM [inhibitor, partial curve]"
C=C(C)c1ccc(C(C)(C)NC(=O)N(Cc2ccccc2)Cc2ccco2)cc1,inactive: -7.7%,
CC(C)Oc1ccc(C(=O)NN2C(=O)NC3(CCCCC3)C2=O)cc1,inactive: -11.4%,
CCN(CC)c1ccc2cc(C(=O)Nc3ccccn3)c(=O)oc2c1,,"inconclusive: 37.7 µM [inhibitor, single point]"
CC1=C(C)CC(C(=O)NCc2ccc3c(c2)OCO3)C(C(=O)O)C1 (stereo unspecified),inactive: -2.53%,
COCCCN(C(=S)Nc1cc(Cl)cc(Cl)c1)C(C)c1ccccn1 (stereo unspecified),,active: 16.8 µM
C=CCNc1nc(N)c(C(=O)c2ccc3c(c2)OCO3)s1,inactive: -3.04%,
CC(=O)NC(C)CCc1ccccc1 (stereo unspecified),inactive: 0%,

# Reference: PubChem BioAssay AID720504 (National Center for Advancing Translational Sciences (NCATS), 2013)
